From PMC10810029
These are yes or no findings as the source states them, for the method shown. Binding seen in cells or lysates may run through a third protein. Some entries that bind do so weakly or less than the wild type.

Amino acid sequences for entries named in this document (tags omitted).
UniProt O60318: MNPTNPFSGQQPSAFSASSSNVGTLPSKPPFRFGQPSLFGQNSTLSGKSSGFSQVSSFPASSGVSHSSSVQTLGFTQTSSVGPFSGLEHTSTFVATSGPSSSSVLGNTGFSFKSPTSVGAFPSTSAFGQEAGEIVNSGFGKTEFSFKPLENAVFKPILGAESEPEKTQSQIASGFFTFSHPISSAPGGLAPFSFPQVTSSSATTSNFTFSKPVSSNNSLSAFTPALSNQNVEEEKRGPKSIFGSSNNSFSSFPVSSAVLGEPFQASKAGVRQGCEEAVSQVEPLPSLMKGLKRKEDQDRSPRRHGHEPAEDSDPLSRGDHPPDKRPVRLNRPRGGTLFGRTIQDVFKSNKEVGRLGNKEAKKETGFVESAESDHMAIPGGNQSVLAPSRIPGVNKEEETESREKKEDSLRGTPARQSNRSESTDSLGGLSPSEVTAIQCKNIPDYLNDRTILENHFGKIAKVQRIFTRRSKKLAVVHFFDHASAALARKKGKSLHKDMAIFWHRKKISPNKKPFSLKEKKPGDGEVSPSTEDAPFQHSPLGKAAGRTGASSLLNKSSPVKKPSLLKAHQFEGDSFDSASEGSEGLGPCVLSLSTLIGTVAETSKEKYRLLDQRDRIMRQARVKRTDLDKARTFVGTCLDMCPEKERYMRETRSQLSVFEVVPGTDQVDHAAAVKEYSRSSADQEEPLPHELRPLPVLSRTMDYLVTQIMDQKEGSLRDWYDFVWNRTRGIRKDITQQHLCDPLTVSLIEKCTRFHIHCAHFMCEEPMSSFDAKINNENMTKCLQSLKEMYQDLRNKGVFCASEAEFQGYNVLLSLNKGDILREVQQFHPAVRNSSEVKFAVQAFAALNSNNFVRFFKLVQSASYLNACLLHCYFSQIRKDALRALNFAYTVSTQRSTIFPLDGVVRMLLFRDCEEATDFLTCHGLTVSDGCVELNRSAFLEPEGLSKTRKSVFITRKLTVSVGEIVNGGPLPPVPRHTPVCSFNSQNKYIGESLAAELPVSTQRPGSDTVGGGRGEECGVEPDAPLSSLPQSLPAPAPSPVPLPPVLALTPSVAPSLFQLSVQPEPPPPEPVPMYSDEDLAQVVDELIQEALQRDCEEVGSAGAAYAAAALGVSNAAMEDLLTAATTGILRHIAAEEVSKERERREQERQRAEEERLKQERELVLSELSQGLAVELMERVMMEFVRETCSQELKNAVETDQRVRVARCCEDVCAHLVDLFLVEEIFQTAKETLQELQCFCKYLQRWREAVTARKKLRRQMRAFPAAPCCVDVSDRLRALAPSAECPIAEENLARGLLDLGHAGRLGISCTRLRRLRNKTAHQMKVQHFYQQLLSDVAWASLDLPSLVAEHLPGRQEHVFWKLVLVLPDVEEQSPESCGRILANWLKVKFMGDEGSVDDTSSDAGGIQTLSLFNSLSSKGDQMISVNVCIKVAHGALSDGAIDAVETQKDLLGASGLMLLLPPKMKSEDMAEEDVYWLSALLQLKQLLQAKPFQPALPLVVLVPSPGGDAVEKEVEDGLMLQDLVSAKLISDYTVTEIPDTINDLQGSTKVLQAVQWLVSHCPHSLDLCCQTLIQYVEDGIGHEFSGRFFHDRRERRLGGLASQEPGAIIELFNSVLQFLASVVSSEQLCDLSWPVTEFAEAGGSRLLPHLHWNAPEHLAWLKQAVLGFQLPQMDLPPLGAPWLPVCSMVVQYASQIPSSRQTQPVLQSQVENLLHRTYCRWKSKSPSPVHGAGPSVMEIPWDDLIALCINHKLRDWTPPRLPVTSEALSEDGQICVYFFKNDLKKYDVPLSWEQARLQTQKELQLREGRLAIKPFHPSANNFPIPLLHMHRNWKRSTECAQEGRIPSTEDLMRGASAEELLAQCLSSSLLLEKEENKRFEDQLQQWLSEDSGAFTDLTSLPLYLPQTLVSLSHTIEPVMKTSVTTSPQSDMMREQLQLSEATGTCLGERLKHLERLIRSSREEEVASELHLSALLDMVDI
UniProt Q5JVF3: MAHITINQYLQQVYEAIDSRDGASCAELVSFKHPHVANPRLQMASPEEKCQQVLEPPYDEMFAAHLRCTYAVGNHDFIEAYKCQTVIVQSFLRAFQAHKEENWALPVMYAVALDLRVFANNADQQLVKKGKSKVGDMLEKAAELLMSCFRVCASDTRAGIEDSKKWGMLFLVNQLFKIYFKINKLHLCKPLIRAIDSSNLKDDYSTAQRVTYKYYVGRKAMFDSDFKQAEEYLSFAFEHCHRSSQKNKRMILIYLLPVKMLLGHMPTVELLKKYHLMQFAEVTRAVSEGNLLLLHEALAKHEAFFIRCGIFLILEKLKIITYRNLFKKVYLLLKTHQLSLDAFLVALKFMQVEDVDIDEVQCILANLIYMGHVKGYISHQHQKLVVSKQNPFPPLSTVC

T1: Orc3 subunit of human ORC (human (endogenous in HEK293T; also A375)) (UniProt Q9UBD5)
T1 sequence: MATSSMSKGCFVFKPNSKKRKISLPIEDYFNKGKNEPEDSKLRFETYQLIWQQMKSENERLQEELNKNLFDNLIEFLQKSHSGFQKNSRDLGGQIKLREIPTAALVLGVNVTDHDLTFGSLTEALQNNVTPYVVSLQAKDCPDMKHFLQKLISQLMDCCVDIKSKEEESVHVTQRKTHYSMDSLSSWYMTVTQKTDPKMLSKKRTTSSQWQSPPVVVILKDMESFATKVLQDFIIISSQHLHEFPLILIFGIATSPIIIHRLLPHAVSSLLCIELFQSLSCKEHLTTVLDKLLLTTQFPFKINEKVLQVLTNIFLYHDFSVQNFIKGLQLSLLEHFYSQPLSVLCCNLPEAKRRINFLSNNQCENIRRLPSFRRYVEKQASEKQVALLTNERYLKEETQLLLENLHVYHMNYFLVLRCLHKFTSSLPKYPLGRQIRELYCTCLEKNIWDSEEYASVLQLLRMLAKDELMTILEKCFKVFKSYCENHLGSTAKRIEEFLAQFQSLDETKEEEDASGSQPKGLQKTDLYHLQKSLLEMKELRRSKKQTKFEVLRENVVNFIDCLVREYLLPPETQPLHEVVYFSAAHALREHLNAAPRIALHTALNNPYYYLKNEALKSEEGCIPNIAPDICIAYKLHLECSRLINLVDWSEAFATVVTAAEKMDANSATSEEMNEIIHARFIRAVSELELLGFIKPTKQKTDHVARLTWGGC

T2: Orc4 subunit of human ORC (human (endogenous in HEK293T; also A375)) (UniProt O43929)
T2 sequence: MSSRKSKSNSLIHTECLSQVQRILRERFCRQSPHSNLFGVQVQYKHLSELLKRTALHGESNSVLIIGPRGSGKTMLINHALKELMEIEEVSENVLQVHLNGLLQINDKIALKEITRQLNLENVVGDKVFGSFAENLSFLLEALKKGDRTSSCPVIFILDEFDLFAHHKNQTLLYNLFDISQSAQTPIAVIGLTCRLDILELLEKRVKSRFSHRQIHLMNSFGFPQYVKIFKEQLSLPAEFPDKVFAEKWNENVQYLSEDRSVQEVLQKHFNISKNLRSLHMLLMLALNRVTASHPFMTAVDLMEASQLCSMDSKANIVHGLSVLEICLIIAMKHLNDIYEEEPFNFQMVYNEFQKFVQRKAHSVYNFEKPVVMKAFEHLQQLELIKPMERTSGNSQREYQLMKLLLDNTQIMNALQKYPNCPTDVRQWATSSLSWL


Experiments:
[1] = biological target: T1, Orc3 subunit of human ORC (human (endogenous in HEK293T; also A375)); test: co-IP; endogenous proteins precipitated from total HEK293T lysates with affinity-purified rabbit polyclonal antibodies to GANP, PCID2, Orc3 or Orc4, Western blot; lysates treated with DNase I and RNase A; phosphatase inhibitors added
[2] = biological target: T2, Orc4 subunit of human ORC (human (endogenous in HEK293T; also A375)); test: as above
[3] = biological target: GANP protein, full-length (subunit of human TREX-2, Xmas-2 homologue) (human (endogenous in HEK293T; also A375)) (UniProt O60318); test: co-IP; immunocoprecipitation from human A375 cell lysates under similar conditions; no figure given
[4] = biological target: PCID2, major low-molecular weight form of approximately 41 kDa (subunit of human TREX-2) (human (endogenous in HEK293T; also A375)) (UniProt Q5JVF3); test: as above
[5] = biological target: GANP protein, full-length (subunit of human TREX-2, Xmas-2 homologue) (human (endogenous in HEK293T; also A375)) (UniProt O60318); test: co-IP; endogenous proteins precipitated from total HEK293T lysates with affinity-purified rabbit polyclonal antibodies to GANP, PCID2, Orc3 or Orc4, Western blot; lysates treated with DNase I and RNase A; phosphatase inhibitors added
[6] = biological target: PCID2, major low-molecular weight form of approximately 41 kDa (subunit of human TREX-2) (human (endogenous in HEK293T; also A375)) (UniProt Q5JVF3); test: as above

Row | Molecule | binding [1] | binding [2] | binding [3] | binding [4] | binding [5] | binding [6]
1 | PCID2, major low-molecular weight form of approximately 41 kDa (subunit of human TREX-2) (from UniProt Q5JVF3 1-399) | binds | binds |  |  |  | 
2 | GANP protein, full-length (subunit of human TREX-2, Xmas-2 homologue) (from UniProt O60318 1-1980) | binds | binds |  |  |  | 
3 | Orc3 subunit of human ORC (protein, UniProt Q9UBD5 1-711) MATSSMSKGCFVFKPNSKKRKISLPIEDYFNKGKNEPEDSKLRFETYQLIWQQMKSENERLQEELNKNLFDNLIEFLQKSHSGFQKNSRDLGGQIKLREIPTAALVLGVNVTDHDLTFGSLTEALQNNVTPYVVSLQAKDCPDMKHFLQKLISQLMDCCVDIKSKEEESVHVTQRKTHYSMDSLSSWYMTVTQKTDPKMLSKKRTTSSQWQSPPVVVILKDMESFATKVLQDFIIISSQHLHEFPLILIFGIATSPIIIHRLLPHAVSSLLCIELFQSLSCKEHLTTVLDKLLLTTQFPFKINEKVLQVLTNIFLYHDFSVQNFIKGLQLSLLEHFYSQPLSVLCCNLPEAKRRINFLSNNQCENIRRLPSFRRYVEKQASEKQVALLTNERYLKEETQLLLENLHVYHMNYFLVLRCLHKFTSSLPKYPLGRQIRELYCTCLEKNIWDSEEYASVLQLLRMLAKDELMTILEKCFKVFKSYCENHLGSTAKRIEEFLAQFQSLDETKEEEDASGSQPKGLQKTDLYHLQKSLLEMKELRRSKKQTKFEVLRENVVNFIDCLVREYLLPPETQPLHEVVYFSAAHALREHLNAAPRIALHTALNNPYYYLKNEALKSEEGCIPNIAPDICIAYKLHLECSRLINLVDWSEAFATVVTAAEKMDANSATSEEMNEIIHARFIRAVSELELLGFIKPTKQKTDHVARLTWGGC |  |  | binds | binds | binds | binds
